No constants are given. Whether binding was seen depends on the method and setting. For some assays here: In cells and extracts the contact can be indirect. Some binding calls cover weakened binding; strength is not graded here. For some assays here: Tags and fused reporters may be left off the sequences shown.
Tests used:
[1] = target: T1, DNA polymerase η (Polη), Gal4BD fusion from pGBKT7-RAD30 (S. cerevisiae) (UniProt Q04049); test: two-hybrid
T1 sequence: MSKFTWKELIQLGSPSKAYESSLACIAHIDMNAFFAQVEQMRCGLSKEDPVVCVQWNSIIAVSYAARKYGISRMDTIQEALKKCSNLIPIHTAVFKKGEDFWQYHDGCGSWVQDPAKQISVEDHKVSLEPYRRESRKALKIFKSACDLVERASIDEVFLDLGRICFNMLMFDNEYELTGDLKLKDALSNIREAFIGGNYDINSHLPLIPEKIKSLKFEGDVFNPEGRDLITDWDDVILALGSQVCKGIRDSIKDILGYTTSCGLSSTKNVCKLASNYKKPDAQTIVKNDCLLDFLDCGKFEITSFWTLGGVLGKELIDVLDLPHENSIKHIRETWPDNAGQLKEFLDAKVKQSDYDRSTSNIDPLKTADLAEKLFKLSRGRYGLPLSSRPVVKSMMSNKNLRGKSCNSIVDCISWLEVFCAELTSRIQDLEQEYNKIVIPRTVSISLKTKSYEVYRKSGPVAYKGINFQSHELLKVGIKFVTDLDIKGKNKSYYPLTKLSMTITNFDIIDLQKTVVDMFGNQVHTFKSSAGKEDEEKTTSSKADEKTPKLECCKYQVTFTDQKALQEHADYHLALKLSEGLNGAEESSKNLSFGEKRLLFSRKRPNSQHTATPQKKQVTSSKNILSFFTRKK

[2] = target: T2, Polη D570A mutant (inactive UBZ domain), yeast two-hybrid fusion (S. cerevisiae) (UniProt Q04049); test: two-hybrid
T2 sequence: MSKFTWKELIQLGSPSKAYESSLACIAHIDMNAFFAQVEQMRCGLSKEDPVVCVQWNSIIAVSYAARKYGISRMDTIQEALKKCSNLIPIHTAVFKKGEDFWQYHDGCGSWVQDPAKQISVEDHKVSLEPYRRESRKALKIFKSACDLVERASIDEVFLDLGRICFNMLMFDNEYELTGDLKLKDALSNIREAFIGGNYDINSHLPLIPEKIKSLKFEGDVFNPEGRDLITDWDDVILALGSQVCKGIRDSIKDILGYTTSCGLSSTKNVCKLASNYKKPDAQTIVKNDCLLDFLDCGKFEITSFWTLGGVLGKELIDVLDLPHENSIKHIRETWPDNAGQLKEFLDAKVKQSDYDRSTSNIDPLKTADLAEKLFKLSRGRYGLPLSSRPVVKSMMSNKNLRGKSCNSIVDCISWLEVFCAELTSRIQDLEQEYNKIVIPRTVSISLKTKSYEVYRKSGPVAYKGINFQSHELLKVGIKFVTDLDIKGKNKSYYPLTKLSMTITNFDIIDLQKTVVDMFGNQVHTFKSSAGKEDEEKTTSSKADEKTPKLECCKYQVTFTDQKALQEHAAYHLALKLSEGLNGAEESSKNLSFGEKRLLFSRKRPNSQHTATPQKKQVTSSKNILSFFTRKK

[3] = target: T3, DNA polymerase η (Polη), expressed in S. cerevisiae for co-immunoprecipitation (S. cerevisiae) (UniProt Q04049); test: co-IP
T3 sequence: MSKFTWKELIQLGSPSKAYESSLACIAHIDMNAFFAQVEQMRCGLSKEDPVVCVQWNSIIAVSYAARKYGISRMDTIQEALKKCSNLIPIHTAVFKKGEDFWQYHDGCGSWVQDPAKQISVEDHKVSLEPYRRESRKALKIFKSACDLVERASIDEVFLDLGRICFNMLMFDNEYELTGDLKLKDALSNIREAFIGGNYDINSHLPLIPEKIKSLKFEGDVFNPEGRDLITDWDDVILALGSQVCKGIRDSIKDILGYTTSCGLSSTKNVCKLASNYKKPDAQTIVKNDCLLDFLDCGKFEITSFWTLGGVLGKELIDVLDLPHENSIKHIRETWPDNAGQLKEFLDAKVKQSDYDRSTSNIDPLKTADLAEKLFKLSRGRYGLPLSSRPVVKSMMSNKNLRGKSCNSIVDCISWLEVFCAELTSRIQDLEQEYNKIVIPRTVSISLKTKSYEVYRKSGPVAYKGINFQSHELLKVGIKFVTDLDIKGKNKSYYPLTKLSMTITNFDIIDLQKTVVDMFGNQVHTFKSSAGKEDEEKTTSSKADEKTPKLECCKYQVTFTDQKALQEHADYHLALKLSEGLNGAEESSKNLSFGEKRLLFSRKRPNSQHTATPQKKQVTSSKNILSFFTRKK

[4] = target: T4, Lsm12, yeast two-hybrid fusion tested against Ubp3 (S. cerevisiae) (UniProt P38828); test: two-hybrid
T4 sequence: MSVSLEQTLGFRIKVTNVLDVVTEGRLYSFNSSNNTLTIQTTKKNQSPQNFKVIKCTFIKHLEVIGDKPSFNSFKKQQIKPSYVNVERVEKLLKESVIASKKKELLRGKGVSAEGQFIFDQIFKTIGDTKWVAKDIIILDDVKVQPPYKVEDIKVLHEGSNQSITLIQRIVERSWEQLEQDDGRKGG

[5] = target: T5, Lsm12, expressed in S. cerevisiae for co-immunoprecipitation (S. cerevisiae) (UniProt P38828); test: co-IP
T5 sequence: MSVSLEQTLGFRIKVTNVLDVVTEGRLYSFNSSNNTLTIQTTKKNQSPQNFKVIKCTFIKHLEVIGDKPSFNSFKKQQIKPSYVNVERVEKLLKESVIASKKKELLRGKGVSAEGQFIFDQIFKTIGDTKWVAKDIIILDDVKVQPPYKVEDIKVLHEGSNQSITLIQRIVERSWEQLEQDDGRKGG

B1: Lsm12, Gal4AD fusion from pGADT7-LSM12 (protein, UniProt P38828 1-187)
chain: MSVSLEQTLGFRIKVTNVLDVVTEGRLYSFNSSNNTLTIQTTKKNQSPQNFKVIKCTFIKHLEVIGDKPSFNSFKKQQIKPSYVNVERVEKLLKESVIASKKKELLRGKGVSAEGQFIFDQIFKTIGDTKWVAKDIIILDDVKVQPPYKVEDIKVLHEGSNQSITLIQRIVERSWEQLEQDDGRKGG
binding [1]: binds
binding [2]: no binding

B2: Lsm12, expressed in S. cerevisiae for co-immunoprecipitation (protein, UniProt P38828 1-187)
chain: MSVSLEQTLGFRIKVTNVLDVVTEGRLYSFNSSNNTLTIQTTKKNQSPQNFKVIKCTFIKHLEVIGDKPSFNSFKKQQIKPSYVNVERVEKLLKESVIASKKKELLRGKGVSAEGQFIFDQIFKTIGDTKWVAKDIIILDDVKVQPPYKVEDIKVLHEGSNQSITLIQRIVERSWEQLEQDDGRKGG
binding [3]: binds

B3: Ubp3, Gal4AD fusion from pGADT7-UBP3 (enzyme, UniProt Q01477 1-912)
chain: MNMQDANKEESYSMYPKTSSPPPPTPTNMQIPIYQAPLQMYGYTQAPYLYPTQIPAYSFNMVNQNQPIYHQSGSPHHLPPQNNINGGSTTNNNNINKKKWHSNGITNNNGSSGNQGANSSGSGMSYNKSHTYHHNYSNNHIPMMASPNSGSNAGMKKQTNSSNGNGSSATSPSYSSYNSSSQYDLYKFDVTKLKNLKENSSNLIQLPLFINTTEAEFAAASVQRYELNMKALNLNSESLENSSVEKSSAHHHTKSHSIPKHNEEVKTETHGEEEDAHDKKPHASKDAHELKKKTEVKKEDAKQDRNEKVIQEPQATVLPVVDKKEPEESVEENTSKTSSPSPSPPAAKSWSAIASDAIKSRQASNKTVSGSMVTKTPISGTTAGVSSTNMAAATIGKSSSPLLSKQPQKKDKKYVPPSTKGIEPLGSIALRMCFDPDFISYVLRNKDVENKIPVHSIIPRGIINRANICFMSSVLQVLLYCKPFIDVINVLSTRNTNSRVGTSSCKLLDACLTMYKQFDKETYEKKFLENADDAEKTTESDAKKSSKSKSFQHCATADAVKPDEFYKTLSTIPKFKDLQWGHQEDAEEFLTHLLDQLHEELISAIDGLTDNEIQNMLQSINDEQLKVFFIRNLSRYGKAEFIKNASPRLKELIEKYGVINDDSTEENGWHEVSGSSKRGKKTKTAAKRTVEIVPSPISKLFGGQFRSVLDIPNNKESQSITLDPFQTIQLDISDAGVNDLETAFKKFSEYELLPFKSSSGNDVEAKKQTFIDKLPQVLLIQFKRFSFINNVNKDNAMTNYNAYNGRIEKIRKKIKYGHELIIPEESMSSITLKNNTSGIDDRRYKLTGVIYHHGVSSDGGHYTADVYHSEHNKWYRIDDVNITELEDDDVLKGGEEASDSRTAYILMYQKRN
binding [4]: binds

B4: Ubp3, expressed in S. cerevisiae for co-immunoprecipitation (enzyme, UniProt Q01477 1-912)
chain: MNMQDANKEESYSMYPKTSSPPPPTPTNMQIPIYQAPLQMYGYTQAPYLYPTQIPAYSFNMVNQNQPIYHQSGSPHHLPPQNNINGGSTTNNNNINKKKWHSNGITNNNGSSGNQGANSSGSGMSYNKSHTYHHNYSNNHIPMMASPNSGSNAGMKKQTNSSNGNGSSATSPSYSSYNSSSQYDLYKFDVTKLKNLKENSSNLIQLPLFINTTEAEFAAASVQRYELNMKALNLNSESLENSSVEKSSAHHHTKSHSIPKHNEEVKTETHGEEEDAHDKKPHASKDAHELKKKTEVKKEDAKQDRNEKVIQEPQATVLPVVDKKEPEESVEENTSKTSSPSPSPPAAKSWSAIASDAIKSRQASNKTVSGSMVTKTPISGTTAGVSSTNMAAATIGKSSSPLLSKQPQKKDKKYVPPSTKGIEPLGSIALRMCFDPDFISYVLRNKDVENKIPVHSIIPRGIINRANICFMSSVLQVLLYCKPFIDVINVLSTRNTNSRVGTSSCKLLDACLTMYKQFDKETYEKKFLENADDAEKTTESDAKKSSKSKSFQHCATADAVKPDEFYKTLSTIPKFKDLQWGHQEDAEEFLTHLLDQLHEELISAIDGLTDNEIQNMLQSINDEQLKVFFIRNLSRYGKAEFIKNASPRLKELIEKYGVINDDSTEENGWHEVSGSSKRGKKTKTAAKRTVEIVPSPISKLFGGQFRSVLDIPNNKESQSITLDPFQTIQLDISDAGVNDLETAFKKFSEYELLPFKSSSGNDVEAKKQTFIDKLPQVLLIQFKRFSFINNVNKDNAMTNYNAYNGRIEKIRKKIKYGHELIIPEESMSSITLKNNTSGIDDRRYKLTGVIYHHGVSSDGGHYTADVYHSEHNKWYRIDDVNITELEDDDVLKGGEEASDSRTAYILMYQKRN
binding [5]: binds
